# Source: EP0090353A1, “2-Pyridone derivatives, method for their preparation and pharmaceutical compositions containing them” (priority 1982, dated 1983)
# Tests used:
# in vivo = conditions: rat, in vivo; Sprague-Dawley rats, 6 animals per dose; Litchfield-Wilcoxon; read-out: LD50 akute Toxizität
# From the text: (§1) Die Bestimmung der akuten Toxizitäten erfolgten in Standardmethoden an Ratten des Sprague-Dawley-Stammes. Pro Dosierung wurden 6 Tiere verwendet. Die LD50-Werte wurden nach Lichtfield und Wilcoxon bestimmt. [drawing 8]
# [1] = system: Ratten des Sprague-Dawley-Stammes; assay: in vivo; conditions: ratio of LD50 (acute toxicity) to ED50 (adjuvant arthritis), rat
# From the text: as §1
# [2] = Gastric ulcerogenic effect; conditions: rat, stomach, po
# gastrale Ulcera = assay: Gastric ulcerogenic effect; conditions: ratio of UD50 (gastric ulcers) to ED50 (adjuvant arthritis), rat
structure (smiles),measurement,setting,value
"COc1ccc2cc([C@H](C)C(=O)O)ccc2c1 [Naproxen, reference compound]",LD50,in vivo,395 mg/kg
same,TI (LD50 /ED50) therapeutischer Index,[1],26
same,TD50 at 24 h,[2],21 mg/kg
same,TI(UD50/ED50) therapeutischer Index,gastrale Ulcera,2
